Experimental data taken from paper PMC6945409.
These are yes or no findings as the source states them, for the method shown. In cells and extracts the contact can be indirect.

Amino acid sequences for entries named in this document (tags omitted). Residues count along the entry.
UniProt P08556: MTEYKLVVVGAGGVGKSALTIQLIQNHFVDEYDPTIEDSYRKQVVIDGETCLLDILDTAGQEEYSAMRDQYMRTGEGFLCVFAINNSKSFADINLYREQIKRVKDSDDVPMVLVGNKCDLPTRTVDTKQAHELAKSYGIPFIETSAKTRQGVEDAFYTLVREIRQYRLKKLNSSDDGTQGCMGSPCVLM
UniProt P32883: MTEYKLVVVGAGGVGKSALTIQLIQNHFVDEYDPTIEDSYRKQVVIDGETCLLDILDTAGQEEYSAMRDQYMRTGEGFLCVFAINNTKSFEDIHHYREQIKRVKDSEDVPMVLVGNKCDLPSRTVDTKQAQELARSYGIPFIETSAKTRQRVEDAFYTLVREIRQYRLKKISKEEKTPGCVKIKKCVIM
UniProt P27512, residues 20-289: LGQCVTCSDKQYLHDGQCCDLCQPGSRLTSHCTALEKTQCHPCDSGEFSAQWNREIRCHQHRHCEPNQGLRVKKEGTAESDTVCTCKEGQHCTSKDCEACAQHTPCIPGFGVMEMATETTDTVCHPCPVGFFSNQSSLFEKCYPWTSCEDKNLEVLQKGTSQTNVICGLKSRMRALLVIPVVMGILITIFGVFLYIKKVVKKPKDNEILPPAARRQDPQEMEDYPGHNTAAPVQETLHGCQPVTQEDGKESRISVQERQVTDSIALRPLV
UniProt P25911: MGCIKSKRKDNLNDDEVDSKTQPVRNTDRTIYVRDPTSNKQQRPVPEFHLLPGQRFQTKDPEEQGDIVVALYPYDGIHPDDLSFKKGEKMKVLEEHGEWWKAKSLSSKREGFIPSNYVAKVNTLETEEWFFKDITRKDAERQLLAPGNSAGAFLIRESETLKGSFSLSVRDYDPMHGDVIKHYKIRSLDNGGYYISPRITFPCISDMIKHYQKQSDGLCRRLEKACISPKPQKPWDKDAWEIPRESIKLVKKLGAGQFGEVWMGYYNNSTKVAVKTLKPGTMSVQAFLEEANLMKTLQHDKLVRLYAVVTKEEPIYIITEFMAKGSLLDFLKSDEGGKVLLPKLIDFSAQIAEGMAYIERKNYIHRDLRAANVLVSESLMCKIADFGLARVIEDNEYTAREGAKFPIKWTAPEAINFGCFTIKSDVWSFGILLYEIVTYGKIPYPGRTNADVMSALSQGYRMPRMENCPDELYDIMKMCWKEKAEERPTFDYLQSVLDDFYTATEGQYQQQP

How the values were obtained:
Experiment in all cases: co-IP; endogenous proteins; macrophages stimulated with anti-CD40 antibody (1, 3, 6 ug/ml; 3 or 10 min), lysed in buffer with NP-40; 200 ug protein with 1 ug antibody and protein G agarose overnight at 4 C, washed 4 times, western blot
[1] = biological target: N-Ras (Neuroblastoma Rat Sarcoma) (mouse (endogenous in BALB/c peritoneal macrophages)) (UniProt P08556)
[2] = biological target: H-Ras (Harvey Rat Sarcoma) (mouse (endogenous in BALB/c peritoneal macrophages)) (UniProt Q61411)
[3] = biological target: K-Ras (Kirsten rat sarcoma) (mouse (endogenous in BALB/c peritoneal macrophages)) (UniProt P32883)

binding [1] | binding [2] | binding [3] | Substance
no binding | no binding | no binding | CD40 (from UniProt P27512 20-289) (receptor)
no binding | no binding | no binding | Lyn (Lck/Yes novel tyrosine kinase) (from UniProt P25911 1-512)
